{
  "source": "patent US20190298775A1",
  "about": "“LIVER ORGANOID COMPOSITIONS AND METHODS OF MAKING AND USING SAME” (Children's Hospital Medical Center, priority 2016, published 2019)",
  "test_system": "human liver organoids",
  "data": [
    {"compound": "CCCCc1oc2ccccc2c1C(=O)c1cc(I)c(OCCN(CC)CC)c(I)c1", "note": "[amiodarone]", "values": [
      {"measurement": "viability / toxicity to organoids in dose finding", "value": "significantly toxic"}
    ]}
  ]
}
